Experimental data from publication PMC6404581, “Staphylococcus aureus toxin LukSF dissociates from its membrane receptor target to enable renewed ligand sequestration” (The FASEB Journal, 2018).
No constants are given. Whether binding was seen depends on the method and setting. Some entries that bind do so weakly or less than the wild type.

Amino acid sequences for entries named in this document (tags omitted). Residues count along the entry.
UniProt P21730: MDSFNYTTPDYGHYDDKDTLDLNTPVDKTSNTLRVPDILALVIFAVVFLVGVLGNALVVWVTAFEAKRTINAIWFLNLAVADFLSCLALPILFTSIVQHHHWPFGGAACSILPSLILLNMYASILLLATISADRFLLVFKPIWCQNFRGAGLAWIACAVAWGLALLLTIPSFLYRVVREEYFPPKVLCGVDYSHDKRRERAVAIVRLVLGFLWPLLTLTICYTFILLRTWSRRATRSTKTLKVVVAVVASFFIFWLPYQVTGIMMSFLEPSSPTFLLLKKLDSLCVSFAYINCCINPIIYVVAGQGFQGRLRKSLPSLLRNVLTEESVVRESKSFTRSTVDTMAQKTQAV
UniProt P01031, residues 678-751: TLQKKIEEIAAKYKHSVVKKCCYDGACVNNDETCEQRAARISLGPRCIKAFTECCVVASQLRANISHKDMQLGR

Assays:
[1] = molecular target: human C5a receptor on hC5aR-expressing HEK cells (construct not named for these assays) (human) (UniProt P21730); test: flow cytometry on cells; inhibition of PE-anti-CD88 binding: hC5aR-expressing HEK cells with increasing S(wt) or C5a, 45 min at 4°C, then anti-CD88; RPMI-HSA; only the binder purified
[2] = molecular target: human C5a receptor on hC5aR-expressing HEK cells (construct not named for these assays) (human) (UniProt P21730); test: flow cytometry on cells; C5a rebinding: hC5aR-expressing HEK cells with 1 µM S(wt), 45 min at 4°C, washed, then 20 nM NT647-labeled C5a and increasing LukF (results: F(G130D)), 20 min at 37°C, 5% CO2; only the binder purified
[3] = molecular target: human C5a receptor, endogenous on human polymorphonuclear cells (human (endogenous in PMNs)) (UniProt P21730); test: flow cytometry on cells; anti-CD88 rebinding on S(wt)-precoated human PMNs with increasing F(G130D) (Supplemental Fig. S9); only the binder purified
[4] = molecular target: human C5a receptor on hC5aR-expressing HEK cells (construct not named for these assays) (human) (UniProt P21730); test: flow cytometry on cells; only the binder purified

| Substance | binding [1] | binding [2] | binding [3] | binding [4] |
| --- | --- | --- | --- | --- |
| C5a anaphylatoxin (from UniProt P01031 678-751) (ligand) | binds |  |  |  |
| NT647-labeled C5a (from UniProt P01031 678-751) (ligand) |  | binds |  |  |
| wild-type Staphylococcus aureus leukocidin S (from UniProt O80066 29-312) | binds | binds | binds | binds |
